Measurements as given in publication PMC7870876.

Amino acid sequences for entries named in this document (tags omitted). A change or cut given only in a name is not applied to a line headed by its entry.
UniProt Q5M7T6: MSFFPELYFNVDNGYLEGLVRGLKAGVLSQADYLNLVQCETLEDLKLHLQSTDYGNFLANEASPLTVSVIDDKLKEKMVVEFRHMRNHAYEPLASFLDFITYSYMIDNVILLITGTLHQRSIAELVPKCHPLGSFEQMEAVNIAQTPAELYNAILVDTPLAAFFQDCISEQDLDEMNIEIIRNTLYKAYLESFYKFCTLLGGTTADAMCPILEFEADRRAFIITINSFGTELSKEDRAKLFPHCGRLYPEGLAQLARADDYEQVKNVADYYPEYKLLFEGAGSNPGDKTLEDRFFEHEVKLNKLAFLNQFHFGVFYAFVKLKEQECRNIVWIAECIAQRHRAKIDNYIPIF
UniProt P25286: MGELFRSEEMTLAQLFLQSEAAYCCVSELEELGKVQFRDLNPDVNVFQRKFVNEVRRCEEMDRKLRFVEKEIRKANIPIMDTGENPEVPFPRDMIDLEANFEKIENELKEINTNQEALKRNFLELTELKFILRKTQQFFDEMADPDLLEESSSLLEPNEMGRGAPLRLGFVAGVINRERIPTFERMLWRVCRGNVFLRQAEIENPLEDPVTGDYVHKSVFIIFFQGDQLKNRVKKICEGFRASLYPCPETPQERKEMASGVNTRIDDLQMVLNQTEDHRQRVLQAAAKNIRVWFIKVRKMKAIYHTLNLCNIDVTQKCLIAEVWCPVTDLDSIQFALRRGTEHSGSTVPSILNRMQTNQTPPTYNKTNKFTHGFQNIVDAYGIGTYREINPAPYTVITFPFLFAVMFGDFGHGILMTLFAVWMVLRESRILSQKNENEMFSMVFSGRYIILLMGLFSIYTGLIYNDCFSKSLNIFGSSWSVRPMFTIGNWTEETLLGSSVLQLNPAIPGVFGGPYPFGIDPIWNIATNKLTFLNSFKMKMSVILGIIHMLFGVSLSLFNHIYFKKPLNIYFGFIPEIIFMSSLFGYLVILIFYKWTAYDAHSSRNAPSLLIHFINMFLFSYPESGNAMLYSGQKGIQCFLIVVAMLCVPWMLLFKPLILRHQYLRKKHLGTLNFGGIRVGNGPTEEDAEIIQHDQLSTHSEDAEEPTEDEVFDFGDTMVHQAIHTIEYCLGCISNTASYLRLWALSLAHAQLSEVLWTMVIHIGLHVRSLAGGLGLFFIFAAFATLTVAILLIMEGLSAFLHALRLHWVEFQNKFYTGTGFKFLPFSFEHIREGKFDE
UniProt Q8R2H0: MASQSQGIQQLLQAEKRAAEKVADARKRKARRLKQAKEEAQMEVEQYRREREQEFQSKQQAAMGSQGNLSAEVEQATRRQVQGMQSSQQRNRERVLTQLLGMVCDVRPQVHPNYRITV
UniProt B2GUV5: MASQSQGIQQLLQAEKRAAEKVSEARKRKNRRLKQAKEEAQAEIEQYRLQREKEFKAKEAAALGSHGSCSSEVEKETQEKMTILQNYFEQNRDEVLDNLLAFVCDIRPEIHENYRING
UniProt Q6AXS4: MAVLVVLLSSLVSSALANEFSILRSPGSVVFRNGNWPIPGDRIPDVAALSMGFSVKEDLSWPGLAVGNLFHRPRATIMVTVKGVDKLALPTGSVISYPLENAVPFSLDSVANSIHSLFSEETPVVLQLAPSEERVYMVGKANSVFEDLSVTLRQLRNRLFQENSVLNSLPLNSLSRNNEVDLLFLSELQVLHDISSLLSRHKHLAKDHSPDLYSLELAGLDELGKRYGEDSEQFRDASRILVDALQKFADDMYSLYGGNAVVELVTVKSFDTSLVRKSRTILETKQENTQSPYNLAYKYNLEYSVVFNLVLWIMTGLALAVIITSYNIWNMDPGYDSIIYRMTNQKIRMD
UniProt P63045: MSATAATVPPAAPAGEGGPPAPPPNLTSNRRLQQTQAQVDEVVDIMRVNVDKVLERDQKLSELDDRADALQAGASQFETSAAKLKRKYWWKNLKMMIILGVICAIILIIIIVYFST

Experiments:
[1] = biological target: V-ATPase subunit d1 (rat (endogenous in rat brain synaptic vesicles)) (UniProt Q5M7T6); assay: cross-linking; synaptic vesicles fused with ΔN-SNARE-proteoliposomes (100 nm liposomes), then BS3 and LC-MS/MS; vesicle proteins in the more spacious membrane
[2] = biological target: V-ATPase-a1 (rat (endogenous in rat brain synaptic vesicles)) (UniProt P25286); assay: as above
[3] = biological target: V-ATPase subunit d1 (rat (endogenous in rat brain synaptic vesicles)) (UniProt Q5M7T6); assay: cross-linking; purified, unstimulated, untreated rat brain synaptic vesicles; 10 mM BS3, 1 h, 25 °C; trypsin, enrichment of cross-linked peptides by peptide SEC, LC-MS/MS, pLink, manual validation; four biological replicates
[4] = biological target: V-ATPase-a1 (rat (endogenous in rat brain synaptic vesicles)) (UniProt P25286); assay: as above
[5] = biological target: V-ATPase subunit d1 (rat (endogenous in rat brain synaptic vesicles)) (UniProt Q5M7T6); assay: cross-linking; synaptic vesicles incubated with an excess of soluble ΔN-SNARE complex (about 3 copies per copy of Synaptobrevin-2, 16 h, 4 °C), then BS3 and LC-MS/MS; vesicle proteins and the SNARE complex on the vesicles
[6] = biological target: V-ATPase-a1 (rat (endogenous in rat brain synaptic vesicles)) (UniProt P25286); assay: as above
[7] = biological target: V-ATPase subunit d1 (rat (endogenous in rat brain synaptic vesicles)) (UniProt Q5M7T6); assay: cross-linking
[8] = biological target: V-ATPase-a1 (rat (endogenous in rat brain synaptic vesicles)) (UniProt P25286); assay: cross-linking
[9] = biological target: V-ATPase subunit G2 (rat (endogenous in rat brain synaptic vesicles)) (UniProt Q8R2H0); assay: cross-linking; synaptic vesicles fused with ΔN-SNARE-proteoliposomes (100 nm liposomes), then BS3 and LC-MS/MS; vesicle proteins in the more spacious membrane
[10] = biological target: V-ATPase subunit G1 (rat (endogenous in rat brain synaptic vesicles)) (UniProt B2GUV5); assay: as above
[11] = biological target: V-ATPase subunit G2 (rat (endogenous in rat brain synaptic vesicles)) (UniProt Q8R2H0); assay: cross-linking; purified, unstimulated, untreated rat brain synaptic vesicles; 10 mM BS3, 1 h, 25 °C; trypsin, enrichment of cross-linked peptides by peptide SEC, LC-MS/MS, pLink, manual validation; four biological replicates
[12] = biological target: V-ATPase subunit G1 (rat (endogenous in rat brain synaptic vesicles)) (UniProt B2GUV5); assay: as above
[13] = biological target: V-ATPase subunit G2 (rat (endogenous in rat brain synaptic vesicles)) (UniProt Q8R2H0); assay: cross-linking; synaptic vesicles incubated with an excess of soluble ΔN-SNARE complex (about 3 copies per copy of Synaptobrevin-2, 16 h, 4 °C), then BS3 and LC-MS/MS; vesicle proteins and the SNARE complex on the vesicles
[14] = biological target: V-ATPase subunit G1 (rat (endogenous in rat brain synaptic vesicles)) (UniProt B2GUV5); assay: as above
[15] = biological target: V-ATPase subunit G2 (rat (endogenous in rat brain synaptic vesicles)) (UniProt Q8R2H0); assay: cross-linking
[16] = biological target: V-ATPase subunit G1 (rat (endogenous in rat brain synaptic vesicles)) (UniProt B2GUV5); assay: cross-linking

Row | binding [1] | binding [2] | binding [3] | binding [4] | binding [5] | binding [6] | binding [7] | binding [8] | binding [9] | binding [10] | binding [11] | binding [12] | binding [13] | binding [14] | binding [15] | binding [16] | Substance
1 | binds | binds | binds | binds | binds | binds | binds | binds | – | – | – | – | – | – | – | – | PRR (from UniProt Q6AXS4)
2 | – | – | – | binds | – | – | – | – | – | – | – | – | – | – | – | – | Synaptobrevin-2 (from UniProt P63045 1-116)
3 | binds | – | binds | – | binds | – | binds | – | binds | binds | binds | binds | binds | binds | binds | binds | V-ATPase-a1 (from UniProt P25286)

Results are given in words; binding and its absence hold for the method and conditions named. In cells and extracts the contact can be indirect. A result given as binding can be weak or reduced; the word gives no strength.
